Taken from: PubChem BioAssay AID1259254 (NCATS, 2017)

Aim: 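Gene knock-downs that lead to re-replication, shown by excess G2 DNA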 (primary screen)
Cells: human HCT116 colorectal cancer cells
Reagent: single siRNA against human genes
Time to read-out: 3 days
Measurement: 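Imaged Hoechst DNA stain sorts each cell into a cycle phase by DNA amount; per plate, G2 fraction set to 0% for non-targeting and 100% for GMNN siRNA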
Reading the numbers: G2 robust z-score and G2 cells, % of GMNN control: higher = more G2 cells, more excess DNA replication
Rule for the call: 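An siRNA counts as active if its G2 robust z-score lies at least 5 MADs above the screen median; here such calls match roughly 38% of GMNN control or more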
Shown is a random part of about 59,000 reagents tested. Of all reagents, about 1,550 (2.6%) got an active call. 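G2 share is only a proxy for re-replication; each gene was hit by three separate siRNAs, and active genes were retested.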 Reagents against one gene are numbered here. Further read-outs or replicates are left out here. Not given: the amount of reagent.

Knock-down of LOC645100 (retired record) #1 gave: G2 robust z-score -0.368; G2 cells, % of GMNN control 0.38; inactive. LOC645100 (retired record) #2 scored G2 robust z-score -0.651; G2 cells, % of GMNN control -1.61; inactive. With knock-down of LOC645100 (retired record) #3, the record shows G2 robust z-score 0.5; G2 cells, % of GMNN control 6.48; inactive. After knock-down of GANAB (glucosidase II alpha subunit) #1 the results were G2 robust z-score 1.49; G2 cells, % of GMNN control 13.5; inactive. Knock-down of GANAB (glucosidase II alpha subunit) #2 came out at: G2 robust z-score 5.71; G2 cells, % of GMNN control 43.2; active. Depletion of GANAB (glucosidase II alpha subunit) #3 came out at: G2 robust z-score 0.624; G2 cells, % of GMNN control 7.36; inactive.

For KCNJ15 (potassium inwardly rectifying channel subfamily J member 15) #1 the deposit lists G2 robust z-score -0.555; G2 cells, % of GMNN control -0.939; inactive. Depletion of KCNJ15 (potassium inwardly rectifying channel subfamily J member 15) #2 resulted in: G2 robust z-score 2.96; G2 cells, % of GMNN control 23.8; inactive. With knock-down of KCNJ15 (potassium inwardly rectifying channel subfamily J member 15) #3 the results were G2 robust z-score -0.399; G2 cells, % of GMNN control 0.162; inactive. For MYL12B (myosin light chain 12B) #1 the deposit lists G2 robust z-score 3.55; G2 cells, % of GMNN control 28; inactive. After knock-down of MYL12B (myosin light chain 12B) #2, the record shows G2 robust z-score 3.23; G2 cells, % of GMNN control 25.7; inactive. Against MYL12B (myosin light chain 12B) #3, the values are G2 robust z-score 0.914; G2 cells, % of GMNN control 9.4; inactive.

Knock-down of KCNQ3 (potassium voltage-gated channel subfamily Q member 3) #1 gave: G2 robust z-score 2.13; G2 cells, % of GMNN control 17.9; inactive. Depletion of KCNQ3 (potassium voltage-gated channel subfamily Q member 3) #2 came out at: G2 robust z-score -0.387; G2 cells, % of GMNN control 0.241; inactive. For KCNQ3 (potassium voltage-gated channel subfamily Q member 3) #3, the values are G2 robust z-score 2.02; G2 cells, % of GMNN control 17.2; inactive. For RIPOR2 (RHO family interacting cell polarization regulator 2) #1, the entry reads G2 robust z-score 6.82; G2 cells, % of GMNN control 51; active. With knock-down of RIPOR2 (RHO family interacting cell polarization regulator 2) #2 the results were G2 robust z-score -0.142; G2 cells, % of GMNN control 1.97; inactive. Against RIPOR2 (RHO family interacting cell polarization regulator 2) #3, the entry reads G2 robust z-score 0.789; G2 cells, % of GMNN control 8.52; inactive.

4 entries from above, sorted by “G2 robust z-score”, descending.
GANAB (glucosidase II alpha subunit) #1 | G2 robust z-score = 1.49; G2 cells, % of GMNN control = 13.5; Call = inactive
LOC645100 (retired record) #3 | G2 robust z-score = 0.5; G2 cells, % of GMNN control = 6.48; Call = inactive
LOC645100 (retired record) #1 | G2 robust z-score = -0.368; G2 cells, % of GMNN control = 0.38; Call = inactive
LOC645100 (retired record) #2 | G2 robust z-score = -0.651; G2 cells, % of GMNN control = -1.61; Call = inactive

Continued.
Against DNAAF1 (dynein axonemal assembly factor 1) #1, the values are G2 robust z-score 0.224; G2 cells, % of GMNN control 4.55; inactive. After knock-down of DNAAF1 (dynein axonemal assembly factor 1) #2, the record shows G2 robust z-score -0.725; G2 cells, % of GMNN control -2.13; inactive. With knock-down of DNAAF1 (dynein axonemal assembly factor 1) #3, the record shows G2 robust z-score 0.0936; G2 cells, % of GMNN control 3.63; inactive. Silencing of TRIM65 (tripartite motif containing 65) #1 resulted in: G2 robust z-score 0.184; G2 cells, % of GMNN control 4.26; inactive. With knock-down of TRIM65 (tripartite motif containing 65) #2, the screen gave G2 robust z-score 2.24; G2 cells, % of GMNN control 18.7; inactive. For TRIM65 (tripartite motif containing 65) #3, the entry reads G2 robust z-score -0.968; G2 cells, % of GMNN control -3.84; inactive.

FAM171A2 (family with sequence similarity 171 member A2) #1 gave G2 robust z-score -0.242; G2 cells, % of GMNN control 1.27; inactive. After knock-down of FAM171A2 (family with sequence similarity 171 member A2) #2, the screen gave G2 robust z-score -0.151; G2 cells, % of GMNN control 1.9; inactive. With knock-down of FAM171A2 (family with sequence similarity 171 member A2) #3, the record shows G2 robust z-score -0.878; G2 cells, % of GMNN control -3.21; inactive. Knock-down of ASL (argininosuccinate lyase) #1 resulted in: G2 robust z-score 2.54; G2 cells, % of GMNN control 20.8; inactive. ASL (argininosuccinate lyase) #2 gave G2 robust z-score -1.38; G2 cells, % of GMNN control -6.78; inactive. With knock-down of ASL (argininosuccinate lyase) #3, the record shows G2 robust z-score -0.909; G2 cells, % of GMNN control -3.43; inactive.
